# Some of the results follow.
# Molecular target: T1, OsSMF1 (Oryza sativa, UniProt Q6ZLB0 1-436)
# T1 sequence: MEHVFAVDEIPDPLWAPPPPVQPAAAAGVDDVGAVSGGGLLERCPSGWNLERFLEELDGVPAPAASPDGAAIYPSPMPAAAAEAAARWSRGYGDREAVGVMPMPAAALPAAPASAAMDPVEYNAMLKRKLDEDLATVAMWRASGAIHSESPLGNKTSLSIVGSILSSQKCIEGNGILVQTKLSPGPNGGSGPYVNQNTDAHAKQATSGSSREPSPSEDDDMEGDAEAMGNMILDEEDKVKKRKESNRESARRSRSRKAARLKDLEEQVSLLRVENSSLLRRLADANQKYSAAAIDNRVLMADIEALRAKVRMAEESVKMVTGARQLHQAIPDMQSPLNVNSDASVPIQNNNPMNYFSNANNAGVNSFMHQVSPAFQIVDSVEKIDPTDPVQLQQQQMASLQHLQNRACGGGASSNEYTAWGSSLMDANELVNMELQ
# Assay: protein-binding microarray (RPBM); PBS, 2% BSA, 51.3 ng/ul salmon testes DNA, 50 uM zinc acetate, 200 nM TF, 25 C, 1 h; high values mean tight binding
# Conditions: protein: recombinant; tags: N-terminal polyhistidine and DsRed monomer fusion (pET32a); chain copies: 2; label: CyDye5-dUTP incorporated in the synthesized complementary strand; 3' TTTTT single-stranded linker to array surface; dsDNA, one strand shown
# How it was run: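 Binding signal is reported as fluorescence intensity per feature (arbitrary units) from an Axon 4000B scanner. Incubation used 200 nM of each Ni–NTA-purified, N-terminally polyhistidine- and DsRed-fused transcription factor from E. coli BL21-CodonPlus on a double-stranded custom Agilent array for 1 h at 25 °C, with 50 µM zinc acetate in the buffer, followed by washing.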
row,Sequence,binding signal
1,GGGCCAAATTTTATCGAGAAGATTAGACACGAGTATGGGCCGGAGTCACCTAGTGCAG,47600 fluorescence intensity (a.u.)
2,TATTTCACGCCAATCATTAATATATACCGTTGGGAGCACTCGGAGTCACCTAGTGCAG,12600 fluorescence intensity (a.u.)
3,ATGGGAAGAAGGGAGTACGGTACACGCAAGCAATGACACACGGAGTCACCTAGTGCAG,6800 fluorescence intensity (a.u.)
4,ATATGGCATACATGAGAATTTAGAGAATTTACCATCAAATCGGAGTCACCTAGTGCAG,45500 fluorescence intensity (a.u.)
5,CCTCATCTTGGCCACGCGCACCCCGGCCACGCGTACATGGCGGAGTCACCTAGTGCAG,5320 fluorescence intensity (a.u.)
6,GATTCATTTAACAATTATATGAATGTGGGAAATGCTAGAACGGAGTCACCTAGTGCAG,44400 fluorescence intensity (a.u.)
7,GCTTGTCGTGGAGGAGGTCGACGACGTGGTAGTCCGAGAGCGGAGTCACCTAGTGCAG,4000 fluorescence intensity (a.u.)
8,AGGCTTTCTATTACGCCCACTGTATGACATGTTAGCTACTCGGAGTCACCTAGTGCAG,3810 fluorescence intensity (a.u.)
9,CTGGCGCTGAACTTAGACATCTCAGCGCCACGTCAACTGACGGAGTCACCTAGTGCAG,18700 fluorescence intensity (a.u.)
10,TACAAGGACGACTCCACATCATCATGTAGGTATTGTAGGTCGGAGTCACCTAGTGCAG,8940 fluorescence intensity (a.u.)
11,GGCGAAAGGTCTATATATATGCTGCCAACCATGTTCTTATCGGAGTCACCTAGTGCAG,3980 fluorescence intensity (a.u.)
12,CTGTGATGGCTTCTCCGCTATTGGTGCGTTTGCGTGGGTTCGGAGTCACCTAGTGCAG,3250 fluorescence intensity (a.u.)
13,AACATCACCGCAGCGCCATGCCACCACACGTCCGGAAAGTCGGAGTCACCTAGTGCAG,4460 fluorescence intensity (a.u.)
14,CTTAGGGGACGATTTTGTAACTCGATGACAAGTTGAGGGACGGAGTCACCTAGTGCAG,3580 fluorescence intensity (a.u.)
15,GAGGTCGATGTAGCCCTTGTCGTGGTCGACGCGGAGGACGCGGAGTCACCTAGTGCAG,5090 fluorescence intensity (a.u.)
16,GCCAGCTTCCCTATAGTAAGCGGTGTATTTGTATGGTTTTCGGAGTCACCTAGTGCAG,3980 fluorescence intensity (a.u.)
17,GTCATAGTGCCCGTTGCCTGGTCATGGCTAGCACGACATGCGGAGTCACCTAGTGCAG,4940 fluorescence intensity (a.u.)
18,CTTAAAAGACAAATAGATTCTTCTCACTTAAAATGACGCGCGGAGTCACCTAGTGCAG,5230 fluorescence intensity (a.u.)
19,TCTTTGATTACAATGGAGTCCACCAAGGTCTCGGCGATGCCGGAGTCACCTAGTGCAG,18800 fluorescence intensity (a.u.)
20,CGGACCGCTCCAGCGTGGGTCCCACTGTCAGTGACATGGACGGAGTCACCTAGTGCAG,3430 fluorescence intensity (a.u.)
21,CGTAGTGTTACAGTGGTATCAGAGACAGGTTGTGGGTGTCCGGAGTCACCTAGTGCAG,4130 fluorescence intensity (a.u.)

# Exported with tabs: part of the list above
row	Sequence	binding signal
13	AACATCACCGCAGCGCCATGCCACCACACGTCCGGAAAGTCGGAGTCACCTAGTGCAG	4460 fluorescence intensity (a.u.)
14	CTTAGGGGACGATTTTGTAACTCGATGACAAGTTGAGGGACGGAGTCACCTAGTGCAG	3580 fluorescence intensity (a.u.)

# (next part)

row,Sequence,binding signal
1,GCCGTAAAAGCTTCGAGCGAAACCCCACGCACGTACGCAGCGGAGTCACCTAGTGCAG,3470 fluorescence intensity (a.u.)
2,GGAGAGCAATCAAGCGAAATTGACACGTGTCACGGCAGTGCGGAGTCACCTAGTGCAG,15400 fluorescence intensity (a.u.)
3,CTCCCTCCTCCTCTCCTCCTCGCCTCCCTCCCGCGGTGGCCGGAGTCACCTAGTGCAG,4340 fluorescence intensity (a.u.)
4,TATGCTCGTCGTCATCAGTCGTAGTCTAAGTACACATCACCGGAGTCACCTAGTGCAG,8900 fluorescence intensity (a.u.)
5,TCTTTGACGTTTGAGCAAACTACCTATAATTAAAATAGGTCGGAGTCACCTAGTGCAG,28100 fluorescence intensity (a.u.)
6,CATGTGGGTCTCACGCTGACTCGTGTGCCACGTAGGACAACGGAGTCACCTAGTGCAG,17200 fluorescence intensity (a.u.)
7,ACACATGCCATTTGCTCCATTCCACCGCCTCCAGGTACGGCGGAGTCACCTAGTGCAG,3180 fluorescence intensity (a.u.)
8,AGCGTGCACACACGATGGATGACACGACGCACGCCGGCACCGGAGTCACCTAGTGCAG,3830 fluorescence intensity (a.u.)
9,GATCGAGCTGACCCGGAAATCCTGCGATGACACTTCGAATCGGAGTCACCTAGTGCAG,3310 fluorescence intensity (a.u.)
10,CAAACTAGGGAATATCAAATCCGTGCCAAGGTTTTATTATCGGAGTCACCTAGTGCAG,3240 fluorescence intensity (a.u.)
11,GAATAGTAACAATTAGTTTTGTGAATTTTGTGAAATACGCCGGAGTCACCTAGTGCAG,52300 fluorescence intensity (a.u.)
12,TTAGACTAATTCGCGAGACGAATCTTTTGAGCCTAATTAACGGAGTCACCTAGTGCAG,15200 fluorescence intensity (a.u.)
13,TTATTATTTTGGTAATATACTCATCCGTGATGGGCGCCTACGGAGTCACCTAGTGCAG,3760 fluorescence intensity (a.u.)
14,TAGAAATTCATACGGTTCGATTACATGCTAGACCTCTTGGCGGAGTCACCTAGTGCAG,3620 fluorescence intensity (a.u.)
15,TTGACACCATCGCAACCCTGGTAGCATGGACGATCTGGAACGGAGTCACCTAGTGCAG,3150 fluorescence intensity (a.u.)
16,CCACTTACAAGAAGATAATGAGAACCAAAATATTGCACACCGGAGTCACCTAGTGCAG,4530 fluorescence intensity (a.u.)
17,CCGCAACAACCACTAACCGACAACCACGTGGCCGCCGAATCGGAGTCACCTAGTGCAG,6300 fluorescence intensity (a.u.)
18,TCTAAAATTTTCATTGGAGAAATTCCATGACGTGGAGTTGCGGAGTCACCTAGTGCAG,10900 fluorescence intensity (a.u.)
19,ACAATACTACTATTTTATCATGACGATGACTGGAACTCCACGGAGTCACCTAGTGCAG,4440 fluorescence intensity (a.u.)
20,GAGGCGGGTGGGCGAGCTCCGGCGGCGGCGGGGTGGCCTTCGGAGTCACCTAGTGCAG,3660 fluorescence intensity (a.u.)
21,GCAGAGTTCAGAATTTGTTCAGTTTAGGTGCTTCTGTAATCGGAGTCACCTAGTGCAG,55600 fluorescence intensity (a.u.)

# Reference: article PMC7819943, “Rice protein-binding microarrays: a tool to detect cis-acting elements near promoter regions in rice”
